Measurements reported in PubChem BioAssay AID1159578 (Peter MacCallum Cancer Centre, 2015)
Test: 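siRNA pools altering how lymphatic endothelial cells close a scratch wound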 (primary screen). System: human lymphatic endothelial cells. Reagent: siRNA pool against human genes, 40 nM. Time to read-out: 48 h after transfection. Detection: 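Cells stained with dye and imaged after a scratch; covered wound area and nuclei counted, duplicates averaged, migration set against mock wells and turned into a robust z-score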. Reading the numbers: migration robust z-score: higher = faster migration into the scratch; nuclei per well: higher = more cells in the well. Active means: 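Pools averaging fewer than 3300 nuclei are never called; remaining pools count as changed when migration robust z lies outside -2 to 2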. Meaning of the calls: active = migration changed; inactive = no migration change, or too few cells.
This is an unselected part of about 18,000 reagents tested. About 1,030 of them (5.7%) were called active. 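Inactive calls also include pools with fewer than 3300 nuclei, whose migration was not assessed.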 The raw values are shown without normalisation. Further read-outs or replicates are left out here.

For DENND2B (DENN domain containing 2B), the values are migration robust z-score -0.76; migration class with cell-count check migration z between -2 and 2; enough cells; nuclei per well, duplicate mean 5246; inactive.
Knock-down of DECR2 (2,4-dienoyl-CoA reductase 2) gave: migration robust z-score 0.39; migration class with cell-count check migration z between -2 and 2; enough cells; nuclei per well, duplicate mean 4972; inactive.
PUM3 (pumilio RNA binding family member 3) scored migration robust z-score -1.12; migration class with cell-count check migration z between -2 and 2; enough cells; nuclei per well, duplicate mean 4916; inactive.
After knock-down of PRAG1 (PEAK1 related, kinase-activating pseudokinase 1), the screen gave migration robust z-score -3.04; migration class with cell-count check under 3300 nuclei; migration not judged; nuclei per well, duplicate mean 3250; inactive.
PECR (peroxisomal trans-2-enoyl-CoA reductase) gave migration robust z-score 0.94; migration class with cell-count check migration z between -2 and 2; enough cells; nuclei per well, duplicate mean 4622; inactive.
Depletion of MTMR1 (myotubularin related protein 1) resulted in: migration robust z-score -0.15; migration class with cell-count check migration z between -2 and 2; enough cells; nuclei per well, duplicate mean 5029; inactive.
Knock-down of PSCA (prostate stem cell antigen) came out at: migration robust z-score 0.14; migration class with cell-count check migration z between -2 and 2; enough cells; nuclei per well, duplicate mean 5268; inactive.
HNRNPCL1 (heterogeneous nuclear ribonucleoprotein C like 1) showed migration robust z-score 0.48; migration class with cell-count check migration z between -2 and 2; enough cells; nuclei per well, duplicate mean 6960; inactive.
Depletion of ZNF827 (zinc finger protein 827) resulted in: migration robust z-score 1.02; migration class with cell-count check migration z between -2 and 2; enough cells; nuclei per well, duplicate mean 7383; inactive.
For MICAL1, the entry reads migration robust z-score -0.3; migration class with cell-count check migration z between -2 and 2; enough cells; nuclei per well, duplicate mean 7132; inactive.
For CIAO1 (cytosolic iron-sulfur assembly component 1), the entry reads migration robust z-score 0.55; migration class with cell-count check migration z between -2 and 2; enough cells; nuclei per well, duplicate mean 5861; inactive.
For LARP4 (La ribonucleoprotein 4), the values are migration robust z-score -0.46; migration class with cell-count check migration z between -2 and 2; enough cells; nuclei per well, duplicate mean 6501; inactive.
